PubChem BioAssay AID652259 | Drosophila RNAi Screening Center, 2013

- Purpose: 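Identify new Wingless signalling regulators in fly cells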 (primary screen)
- Cells: Drosophila clone 8 imaginal disc epithelial cells
- Reagents: long dsRNA against Drosophila genes
- Challenge: pathway stimulated by co-transfected Wingless expression plasmid
- Detection: 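Firefly luciferase from a tcf-site Wingless reporter, measured alongside co-transfected Renilla luciferase that tracks transfection; pathway stimulated by a Wingless plasmid; the firefly-to-Renilla ratio is not deposited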
- Reading the numbers: firefly reporter light: higher = more Wg reporter light, before normalisation; Renilla control light: higher = more transfected or surviving cells
- Call rule: 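a knock-down is a candidate when at least two out of four statistical tests show it departing from its plate mean; one test alone signals a weak candidate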
- Meaning of the calls: active = candidate regulator (raises or lowers reporter); inactive = not a candidate
The screen tested about 22,000 reagents; below is an unselected part of those with a known target gene and a result. In the full data, 233 (1.1%) got an active call. 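Light values are raw, unnormalised plate reads; the ratio scores behind the reporter calls were not deposited.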 A plus sign joins genes that one reagent is predicted to hit. Reagent sequences are not shown. Not stated in the record: the amount of reagent, the time to read-out, the dose of the treatment.

| target | DRSC id | reporter change call, replicate 1 | firefly reporter light, replicate 1 | firefly reporter light, replicate 2 | Renilla control light, replicate 1 | Renilla control light, replicate 2 | outcome |
| --- | --- | --- | --- | --- | --- | --- | --- |
| Rab5 | DRSC00777 | Wg reporter activity raised | 23498 | – | 2656 | – | active |
| Tsp47F | DRSC07325 | – | 6068 | – | 1936 | – | inactive |
| Wee1 | DRSC03635 | – | 3496 | 7706 | 1106 | 1418 | inactive |
| yki | DRSC04437 | – | 10301 | – | 3816 | – | inactive |
| MRP | DRSC02942 | – | 6871 | – | 2688 | – | inactive |
| Ptth | DRSC00356 | – | 3354 | 7078 | 1232 | 2532 | inactive |
| mRpS18C | DRSC16538 | – | 11493 | – | 3296 | – | inactive |
| OXA1L | DRSC09672 | – | 3377 | – | 1638 | – | inactive |
| Lasp | DRSC10379 | – | 3984 | – | 1504 | – | inactive |
| CG32686 | DRSC17645 | – | 6331 | – | 1324 | – | inactive |
| SdhAL | DRSC10539 | – | 2576 | – | 1456 | – | inactive |
| CG17575 | DRSC06682 | – | 8593 | – | 3248 | – | inactive |
| CG18788 | DRSC02697 | – | 2390 | 6028 | 947 | 2290 | inactive |
| Dredd | DRSC18461 | – | 2061 | 5098 | 752 | 1497 | inactive |
| CG7536 | DRSC20050 | – | 2979 | 9516 | 1149 | 3096 | inactive |
| MESK2 + CG10494 | DRSC04259 | – | 2051 | 7475 | 648 | 2055 | inactive |
| CG31115 | DRSC13692 | – | 2279 | – | 1223 | – | inactive |
| tral | DRSC09779 | – | 2280 | – | 1189 | – | inactive |
| su(r) | DRSC18705 | – | 1988 | 6569 | 525 | 1769 | inactive |
| CG32633 | DRSC18987 | – | 3701 | – | 682 | – | inactive |
| CR18275 + CR18166 + CG32817 | DRSC17249 | – | 4337 | – | 1920 | – | inactive |
| CG12948 | DRSC14576 | – | 14320 | – | 3952 | – | inactive |
| CG33978 | DRSC17106 | – | 3715 | – | 1141 | – | inactive |
| kz | DRSC18786 | – | 19419 | – | 17280 | – | inactive |
| MsR1 | DRSC08615 | – | 5739 | – | 2624 | – | inactive |
| Zn72D | DRSC11318 | – | 4576 | – | 1456 | – | inactive |
| CG42254 (retired record) | DRSC06194 | – | 7085 | – | 2602 | – | inactive |
| CR14033 | DRSC02358 | – | 15691 | – | 4803 | – | inactive |
| CG7896 | DRSC16335 | – | 1547 | 4908 | 714 | 1158 | inactive |
| Rpn8 | DRSC04624 | – | 2499 | 5260 | 432 | 1427 | inactive |
| CG30046 | DRSC06691 | – | 3508 | – | 1408 | – | inactive |
| TMEM216 + CG11760 | DRSC14375 | – | 8706 | – | 3634 | – | inactive |
| Rab9Fb | DRSC19854 | – | 19388 | – | 9744 | – | inactive |
| CG6574 | DRSC16070 | – | 10544 | – | 2853 | – | inactive |
| Nup160 | DRSC02774 | – | 3271 | 9200 | 680 | 2992 | inactive |
| CG7201 | DRSC10786 | – | 2150 | 5696 | 1228 | 3025 | inactive |
| dhd | DRSC18761 | – | 3659 | 8632 | 883 | 3155 | inactive |
| CG9593 | DRSC16508 | – | 12307 | – | 2356 | – | inactive |
| CG42700 | DRSC06292 | – | 5272 | – | 619 | – | inactive |
| CG42700 | DRSC06293 | – | 8252 | – | 3443 | – | inactive |
| Elp6 | DRSC16571 | – | 5264 | – | 2119 | – | inactive |
| CR42785 | DRSC04962 | – | 21627 | – | 10375 | – | inactive |
| Cp18 | DRSC11120 | – | 1574 | 7859 | 1228 | 3692 | inactive |
| Cad87A | DRSC16161 | – | 5291 | – | 2052 | – | inactive |
| Alp12 | DRSC02515 | – | 3104 | 10884 | 1043 | 3287 | inactive |
| blow | DRSC07586 | – | 9285 | – | 1642 | – | inactive |
| Tollo | DRSC11305 | – | 6377 | – | 2947 | – | inactive |
| CG10376 | DRSC02049 | – | 6040 | – | 2119 | – | inactive |
| Sprn | DRSC10132 | – | 5724 | – | 2644 | – | inactive |

Records listed so far whose target name begins with R or r:
| target | DRSC id | reporter change call, replicate 1 | firefly reporter light, replicate 1 | firefly reporter light, replicate 2 | Renilla control light, replicate 1 | Renilla control light, replicate 2 | outcome |
| --- | --- | --- | --- | --- | --- | --- | --- |
| Rab5 | DRSC00777 | Wg reporter activity raised | 23498 | – | 2656 | – | active |
| Rpn8 | DRSC04624 | – | 2499 | 5260 | 432 | 1427 | inactive |
| Rab9Fb | DRSC19854 | – | 19388 | – | 9744 | – | inactive |
